Reference: the supplement of paper PMC10849652
The other results are listed elsewhere or left out.

Protein sequences, listed by entry. Tags and fused reporters are not part of them. Lines headed by an entry give the natural chain unless they say otherwise; changes in a name come on top.
UniProt Q86VM9: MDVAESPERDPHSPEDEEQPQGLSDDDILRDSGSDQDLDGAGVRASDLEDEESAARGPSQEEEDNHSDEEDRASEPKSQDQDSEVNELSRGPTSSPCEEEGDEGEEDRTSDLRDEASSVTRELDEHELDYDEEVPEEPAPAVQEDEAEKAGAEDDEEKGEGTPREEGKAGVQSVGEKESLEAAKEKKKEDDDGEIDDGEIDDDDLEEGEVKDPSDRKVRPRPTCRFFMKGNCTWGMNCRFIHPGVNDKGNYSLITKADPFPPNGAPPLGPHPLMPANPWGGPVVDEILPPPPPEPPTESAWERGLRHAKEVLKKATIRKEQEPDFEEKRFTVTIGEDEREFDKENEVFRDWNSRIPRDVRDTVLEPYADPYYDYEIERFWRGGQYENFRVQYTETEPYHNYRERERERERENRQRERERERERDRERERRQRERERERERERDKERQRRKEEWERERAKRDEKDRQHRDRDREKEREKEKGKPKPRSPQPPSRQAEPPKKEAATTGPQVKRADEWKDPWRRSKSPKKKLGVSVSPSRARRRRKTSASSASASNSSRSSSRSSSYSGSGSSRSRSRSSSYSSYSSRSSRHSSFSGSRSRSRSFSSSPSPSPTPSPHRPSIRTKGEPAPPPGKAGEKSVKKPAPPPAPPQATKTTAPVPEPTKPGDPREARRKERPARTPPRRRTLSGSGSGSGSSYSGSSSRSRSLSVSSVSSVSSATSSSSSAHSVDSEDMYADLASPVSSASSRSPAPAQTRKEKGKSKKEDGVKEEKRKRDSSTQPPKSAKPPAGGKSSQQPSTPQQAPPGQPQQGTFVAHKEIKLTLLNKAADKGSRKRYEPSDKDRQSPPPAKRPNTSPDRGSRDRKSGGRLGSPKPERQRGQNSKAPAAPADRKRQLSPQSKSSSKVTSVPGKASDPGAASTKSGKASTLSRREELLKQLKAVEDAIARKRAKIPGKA
UniProt Q9NUE0: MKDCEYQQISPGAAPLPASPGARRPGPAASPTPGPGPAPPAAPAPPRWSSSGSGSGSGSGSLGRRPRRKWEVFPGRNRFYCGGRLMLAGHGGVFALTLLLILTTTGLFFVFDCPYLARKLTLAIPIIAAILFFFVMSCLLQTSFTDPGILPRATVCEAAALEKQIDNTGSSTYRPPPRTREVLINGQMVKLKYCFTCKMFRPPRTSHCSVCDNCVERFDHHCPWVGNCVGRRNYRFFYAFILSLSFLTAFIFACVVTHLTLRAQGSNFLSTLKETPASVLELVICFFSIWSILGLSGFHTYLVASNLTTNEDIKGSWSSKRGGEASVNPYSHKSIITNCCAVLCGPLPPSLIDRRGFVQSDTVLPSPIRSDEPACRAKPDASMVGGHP
UniProt P25490, whole entry, looked up: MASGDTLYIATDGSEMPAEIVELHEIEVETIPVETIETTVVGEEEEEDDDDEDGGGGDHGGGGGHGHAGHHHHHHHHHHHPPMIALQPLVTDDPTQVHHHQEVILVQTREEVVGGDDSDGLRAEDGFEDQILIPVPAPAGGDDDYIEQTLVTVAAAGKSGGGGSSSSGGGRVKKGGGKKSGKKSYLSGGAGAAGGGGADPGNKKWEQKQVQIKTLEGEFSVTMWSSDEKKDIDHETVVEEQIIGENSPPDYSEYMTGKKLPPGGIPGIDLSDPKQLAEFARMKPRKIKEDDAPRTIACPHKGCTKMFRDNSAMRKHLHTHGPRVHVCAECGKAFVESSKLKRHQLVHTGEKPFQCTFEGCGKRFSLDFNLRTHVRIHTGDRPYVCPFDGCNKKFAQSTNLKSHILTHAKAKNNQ
UniProt Q8IWT0: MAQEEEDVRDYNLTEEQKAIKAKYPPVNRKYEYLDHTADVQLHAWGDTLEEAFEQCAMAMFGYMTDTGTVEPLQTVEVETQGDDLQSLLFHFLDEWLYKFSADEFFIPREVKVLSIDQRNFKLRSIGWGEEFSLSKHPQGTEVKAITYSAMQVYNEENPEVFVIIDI
UniProt P16989, whole entry, looked up: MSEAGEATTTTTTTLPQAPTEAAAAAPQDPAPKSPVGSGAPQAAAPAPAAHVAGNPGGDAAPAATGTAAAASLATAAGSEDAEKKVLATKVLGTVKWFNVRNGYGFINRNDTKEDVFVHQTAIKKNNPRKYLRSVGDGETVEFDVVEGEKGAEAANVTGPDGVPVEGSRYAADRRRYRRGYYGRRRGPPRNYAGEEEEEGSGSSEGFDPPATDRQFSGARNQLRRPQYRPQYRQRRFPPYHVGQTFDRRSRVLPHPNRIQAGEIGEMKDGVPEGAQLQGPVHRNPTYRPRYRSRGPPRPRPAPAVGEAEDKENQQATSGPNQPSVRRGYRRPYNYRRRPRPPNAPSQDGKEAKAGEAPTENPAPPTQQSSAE
UniProt Q9C0B5: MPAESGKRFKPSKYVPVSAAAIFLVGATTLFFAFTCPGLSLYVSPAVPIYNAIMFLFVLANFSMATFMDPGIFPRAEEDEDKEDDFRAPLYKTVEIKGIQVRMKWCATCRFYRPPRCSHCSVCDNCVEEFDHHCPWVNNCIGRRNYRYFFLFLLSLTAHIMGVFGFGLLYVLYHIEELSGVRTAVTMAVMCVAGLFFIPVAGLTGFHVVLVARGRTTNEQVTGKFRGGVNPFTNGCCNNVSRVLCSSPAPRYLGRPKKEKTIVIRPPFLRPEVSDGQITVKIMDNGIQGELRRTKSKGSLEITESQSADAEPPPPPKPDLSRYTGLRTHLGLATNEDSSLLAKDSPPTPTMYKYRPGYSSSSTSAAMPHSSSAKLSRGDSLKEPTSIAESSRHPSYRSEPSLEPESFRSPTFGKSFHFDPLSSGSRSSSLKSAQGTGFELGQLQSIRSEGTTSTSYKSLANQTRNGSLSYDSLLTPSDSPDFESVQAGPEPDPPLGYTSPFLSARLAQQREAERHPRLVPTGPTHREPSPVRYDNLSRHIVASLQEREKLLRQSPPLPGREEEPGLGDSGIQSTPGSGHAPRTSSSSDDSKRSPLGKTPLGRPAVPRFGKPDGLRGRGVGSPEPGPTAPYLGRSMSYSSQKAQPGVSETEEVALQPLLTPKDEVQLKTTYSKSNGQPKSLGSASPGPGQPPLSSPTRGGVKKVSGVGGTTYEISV
UniProt Q16600: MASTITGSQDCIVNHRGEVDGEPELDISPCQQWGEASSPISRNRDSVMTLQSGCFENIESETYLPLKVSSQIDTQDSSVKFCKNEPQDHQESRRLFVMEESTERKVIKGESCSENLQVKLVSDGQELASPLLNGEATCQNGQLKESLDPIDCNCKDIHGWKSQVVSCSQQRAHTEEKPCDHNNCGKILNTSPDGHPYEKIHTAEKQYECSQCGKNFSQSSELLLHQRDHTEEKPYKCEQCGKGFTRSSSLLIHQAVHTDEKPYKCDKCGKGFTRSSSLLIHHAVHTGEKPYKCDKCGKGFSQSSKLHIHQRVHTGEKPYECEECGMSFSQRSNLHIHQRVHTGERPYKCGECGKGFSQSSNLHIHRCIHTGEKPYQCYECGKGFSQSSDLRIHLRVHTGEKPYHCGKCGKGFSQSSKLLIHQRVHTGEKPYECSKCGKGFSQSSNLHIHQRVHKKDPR
UniProt Q8WU90: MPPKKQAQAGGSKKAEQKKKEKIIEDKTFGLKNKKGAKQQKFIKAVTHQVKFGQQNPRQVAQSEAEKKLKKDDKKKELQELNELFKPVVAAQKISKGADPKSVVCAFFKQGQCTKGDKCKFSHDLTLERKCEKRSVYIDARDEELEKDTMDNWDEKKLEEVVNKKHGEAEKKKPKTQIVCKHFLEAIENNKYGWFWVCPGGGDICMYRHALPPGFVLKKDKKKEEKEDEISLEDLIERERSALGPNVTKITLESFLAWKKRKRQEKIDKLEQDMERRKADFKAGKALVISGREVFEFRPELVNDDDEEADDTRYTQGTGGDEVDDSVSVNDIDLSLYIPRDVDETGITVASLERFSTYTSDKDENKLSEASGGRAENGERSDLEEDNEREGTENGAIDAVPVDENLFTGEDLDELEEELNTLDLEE
UniProt Q6FIF0: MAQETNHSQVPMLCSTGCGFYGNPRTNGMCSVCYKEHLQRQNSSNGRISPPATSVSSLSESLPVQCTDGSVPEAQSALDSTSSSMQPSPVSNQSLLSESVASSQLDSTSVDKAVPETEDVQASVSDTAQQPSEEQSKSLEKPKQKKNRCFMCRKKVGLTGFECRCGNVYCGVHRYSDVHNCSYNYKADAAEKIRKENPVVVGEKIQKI
UniProt Q96GY0: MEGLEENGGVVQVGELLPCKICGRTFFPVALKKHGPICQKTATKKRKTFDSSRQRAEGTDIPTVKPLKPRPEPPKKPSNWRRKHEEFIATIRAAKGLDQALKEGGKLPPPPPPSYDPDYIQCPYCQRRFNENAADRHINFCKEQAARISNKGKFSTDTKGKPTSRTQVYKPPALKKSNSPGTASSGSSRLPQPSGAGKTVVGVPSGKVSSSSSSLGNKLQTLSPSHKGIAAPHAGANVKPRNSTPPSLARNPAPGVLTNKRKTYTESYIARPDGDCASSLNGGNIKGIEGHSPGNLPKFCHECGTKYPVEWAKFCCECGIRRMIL
UniProt P63104: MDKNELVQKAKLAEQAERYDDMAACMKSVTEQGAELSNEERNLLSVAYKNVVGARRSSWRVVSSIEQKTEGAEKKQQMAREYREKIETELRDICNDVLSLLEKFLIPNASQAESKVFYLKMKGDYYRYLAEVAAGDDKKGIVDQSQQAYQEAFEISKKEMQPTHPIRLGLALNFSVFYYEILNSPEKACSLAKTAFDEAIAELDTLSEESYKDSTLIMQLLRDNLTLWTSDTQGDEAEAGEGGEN
UniProt Q9NUD5: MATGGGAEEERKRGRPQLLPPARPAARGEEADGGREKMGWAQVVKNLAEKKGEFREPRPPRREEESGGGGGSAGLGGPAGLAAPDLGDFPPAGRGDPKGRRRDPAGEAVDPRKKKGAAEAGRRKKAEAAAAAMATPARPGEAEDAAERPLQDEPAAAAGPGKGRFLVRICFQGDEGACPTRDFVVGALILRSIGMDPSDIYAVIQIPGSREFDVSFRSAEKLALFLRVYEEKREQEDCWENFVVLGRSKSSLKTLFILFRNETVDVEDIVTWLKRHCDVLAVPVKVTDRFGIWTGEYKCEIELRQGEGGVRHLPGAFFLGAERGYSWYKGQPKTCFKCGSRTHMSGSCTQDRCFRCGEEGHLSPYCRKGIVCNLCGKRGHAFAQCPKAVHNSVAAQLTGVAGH
UniProt O14980, whole entry, looked up: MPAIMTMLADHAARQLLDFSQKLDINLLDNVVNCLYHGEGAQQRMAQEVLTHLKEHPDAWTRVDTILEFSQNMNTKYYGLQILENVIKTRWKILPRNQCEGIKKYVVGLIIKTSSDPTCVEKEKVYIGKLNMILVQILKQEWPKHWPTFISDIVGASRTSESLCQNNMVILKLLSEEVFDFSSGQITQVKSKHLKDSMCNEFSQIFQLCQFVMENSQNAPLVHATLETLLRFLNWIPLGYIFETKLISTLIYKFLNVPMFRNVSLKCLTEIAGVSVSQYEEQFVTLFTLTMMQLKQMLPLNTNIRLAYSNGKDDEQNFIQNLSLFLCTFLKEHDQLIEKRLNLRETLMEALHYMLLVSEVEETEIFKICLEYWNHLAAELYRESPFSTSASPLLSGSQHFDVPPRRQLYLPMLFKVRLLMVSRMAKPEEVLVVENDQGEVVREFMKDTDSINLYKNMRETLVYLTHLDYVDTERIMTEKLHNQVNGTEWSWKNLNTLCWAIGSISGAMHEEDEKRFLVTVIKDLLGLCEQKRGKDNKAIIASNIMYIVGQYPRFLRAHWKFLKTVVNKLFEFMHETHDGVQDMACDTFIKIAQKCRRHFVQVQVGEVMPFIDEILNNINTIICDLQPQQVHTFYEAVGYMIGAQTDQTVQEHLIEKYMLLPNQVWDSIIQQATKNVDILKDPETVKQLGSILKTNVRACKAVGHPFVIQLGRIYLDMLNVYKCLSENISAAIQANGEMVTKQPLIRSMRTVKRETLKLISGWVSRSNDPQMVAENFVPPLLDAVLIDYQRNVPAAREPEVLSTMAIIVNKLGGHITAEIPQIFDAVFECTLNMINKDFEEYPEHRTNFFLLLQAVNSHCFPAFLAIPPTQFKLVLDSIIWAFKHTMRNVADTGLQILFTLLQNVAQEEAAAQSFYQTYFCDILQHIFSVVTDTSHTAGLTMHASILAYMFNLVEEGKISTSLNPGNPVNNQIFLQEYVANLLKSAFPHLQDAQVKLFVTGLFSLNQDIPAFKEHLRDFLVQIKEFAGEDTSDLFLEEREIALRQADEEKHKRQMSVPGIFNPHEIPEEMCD
UniProt Q8NBI6: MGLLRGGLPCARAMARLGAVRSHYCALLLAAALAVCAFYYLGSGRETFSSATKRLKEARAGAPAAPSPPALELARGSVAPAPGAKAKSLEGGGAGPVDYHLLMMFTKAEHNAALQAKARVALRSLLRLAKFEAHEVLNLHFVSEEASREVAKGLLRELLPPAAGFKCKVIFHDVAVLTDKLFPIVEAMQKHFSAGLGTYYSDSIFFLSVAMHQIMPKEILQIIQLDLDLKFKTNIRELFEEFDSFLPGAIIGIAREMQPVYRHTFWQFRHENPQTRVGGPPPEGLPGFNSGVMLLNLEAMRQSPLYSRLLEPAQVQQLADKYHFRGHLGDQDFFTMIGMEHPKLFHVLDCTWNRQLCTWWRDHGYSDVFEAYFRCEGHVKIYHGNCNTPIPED

compound: C1=CC=C(C=C1)C2=NC(=C(N2)C3=CC=NC=C3)C4=CC(=C(C=C4)Cl)O; experiment: log2 fold change, soluble protein after heating vs DMSO (PISA); higher = thermal stabilisation; K562 cells, 10 uM, 30 min; active = over 0.2 and 3.5 SD of the protein, either way, in both replicates (recomputed)
In short: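 K562 cells at 2×10^6 cells/mL were given 10 μM compound for 30 min. Aliquots then went through 3 min of heating across 48°C-58°C, were pooled, and were extracted in PBS with 0.5% NP-40 at 4°C, and the supernatant after 21,000xg for 90 min was quantified by TMTpro 16plex LC-MS/MS with channel sums equalised. Thermal stability relative to control samples, from duplicates, is given as log2 fold change.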

log2 fold change, inactive:
ZDHHC14 (UniProt Q8IZN3) 0.036, ZC3H18 (UniProt Q86VM9) 0.015, ZC3H8 (UniProt Q8N5P1) -0.076, YIPF4 (UniProt Q9BSR8) -0.054, YDJC (UniProt A8MPS7) 0.08, ZMPSTE24 (UniProt O75844) -0.028, ZFYVE27 isoform 2 (UniProt Q5T4F4) 0.001, ZBTB43 (UniProt O43298) -0.064, ZMIZ2 (UniProt Q8NF64) -0.025, ZDHHC18 (UniProt Q9NUE0) 0.098, ZER1 (UniProt Q7Z7L7) 0.012, YY1 (UniProt P25490) -0.053, YWHAE (UniProt P62258) -0.062, YES1 (UniProt P07947) -0.112, ZBTB8OS (UniProt Q8IWT0) -0.069, YJU2 (UniProt Q9BW85) -0.106, YLPM1 (UniProt P49750) -0.024, YBX3 (UniProt P16989) -0.074, ZFYVE19 (UniProt Q96K21) -0.057, YARS2 (UniProt Q9Y2Z4) 0.074, XPO5 (UniProt Q9HAV4) 0.023, ZDHHC17 (UniProt Q8IUH5) 0.002, ZC3H14 (UniProt Q6PJT7) -0.04, YKT6 (UniProt O15498) -0.024, ZDHHC5 (UniProt Q9C0B5) 0.01, ZNF239 (UniProt Q16600) 0.044, ZC3H15 (UniProt Q8WU90) -0.083, YAE1 (UniProt Q9NRH1) -0.015, ZNF24 (UniProt P17028) -0.022, ZFAND6 (UniProt Q6FIF0) -0.006, ZC2HC1A (UniProt Q96GY0) 0.205, YWHAZ (UniProt P63104) 0.096, ZCCHC3 (UniProt Q9NUD5) 0.015, XPO1 (UniProt O14980) 0.051, YEATS4 (UniProt O95619) -0.049, ZC3HC1 (UniProt Q86WB0) 0.024, XXYLT1 (UniProt Q8NBI6) -0.034, ZDHHC3 isoform 2 (UniProt Q9NYG2) 0.045, ZBTB21 (UniProt Q9ULJ3) -0.067
